Measured values taken from PubChem BioAssay AID1688 (National Center for Advancing Translational Sciences (NCATS), 2009).
Screen size: about 220,000 compounds; about 2,400 (1.1%) were called active. The inconclusive results got no clear call from the source; some entries with a clear call stand among them for comparison. Calls come from the whole dose curve; as a rule, active = well fitted inhibition curve with a large enough effect; inconclusive = small, poorly fitted or top-dose-only effect, or effect the other way; inactive = no such curve, though single readings can be large or run the other way. Where the call is inconclusive, the potency comes from a doubtful curve fit.

Experiment: qHTS Multiplex Assay to Identify Dual Action Probes in a Cell Model of Huntington: Aggregate Formation (GFP); note: nearly all actives have a fitted effect of over 60% in size
Details: PC12 HttQ103-GFP aggregates, Acumen cytometry, 40 h; activity change, negative = inhibition: at 46.1 µM (top of the series) unless noted
In short: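 Aggregates are detected as GFP objects 1–25 µm with signal 6 STDEV over background in lysates of induced PC12 cells. These carry Huntingtin exon 1 with 103 glutamines fused to GFP under an ecdysone promoter; compounds titrated.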
% is set by controls: 0 for no effect and ±100 for the full control effect; potency is the fitted concentration of half-maximal effect.

Compound | Potency | activity change, negative = inhibition
CCOc1ccccc1NC(=O)C(NCC1(N2CCCCC2)CCCCC1)c1ccccc1 (stereo not given) | inconclusive: 35.5 µM [inhibitor, single point] | 
CC(=O)Nc1cccc(NC(=O)C2CCCN2C(=O)Nc2cccc(F)c2)c1 (stereo not given) | inactive | 
FC(F)Sc1ccc(Nc2ncnc3nc[nH]c23)cc1 | inconclusive: 11.2 µM [inhibitor, partial curve] | 
CCCNC(=O)Cn1c(=O)cnc2ccccc21 | inconclusive: 5.01 µM [inhibitor, single point] | 
Cc1ccc(N(CC(=O)NCc2ccco2)C(=O)CCC(=O)Nc2nccs2)cc1 |  | inactive: 0.897% [at 9.22 µM]
NC(=NCCCCCCN=C(N)/N=C(\N)Nc1ccc(Cl)cc1)/N=C(\N)Nc1ccc(Cl)cc1 | active: 14.1 µM | 
O=C(O)CCNc1ccc2c(c1)OCCO2 | inconclusive: 1.26 µM [inhibitor, partial curve] | 
CCCCC(=O)Nc1ccc2c3c(cccc13)C(=O)N2CC | inconclusive: 15.8 µM [activator, single point] | 
O=C(O)CCN1C(=O)/C(=C\c2cccc(OCC(=O)Nc3ccc(Cl)cc3)c2)SC1=S |  | inactive: 12.4% [at 9.22 µM]
Cc1ccc(Cn2c(C)nc3c(c2=O)c2nc4ccccc4nc2n3Cc2ccco2)cc1 | inconclusive: 11.2 µM [activator, partial curve] | 
CCOC(=O)c1cccc(NC(=O)c2cccs2)c1 | inactive | 
CCOC(=O)NC(=O)COC(=O)c1ccc(O)cc1 | inactive | 
CC(=O)c1cccc(NC(=S)NCCCCc2ccccc2)c1 | inconclusive: 5.62 µM [inhibitor, single point] | 
COC(=O)C1=C(C)N(c2ccccc2)/C(=C/c2cccs2)C1=O | inconclusive: 3.16 µM [activator, partial curve] | 
Cc1cc(C(=O)NNC(=S)Nc2ccccc2C)cs1 | inconclusive: 35.5 µM [activator, single point] | 
CNC(=O)c1ccsc1NC(=O)c1ccc(S(=O)(=O)N2CCCc3ccccc32)cc1 | inactive | 
NC(=O)N/N=C/c1ccc(-c2ccc([N+](=O)[O-])cc2)o1 | inconclusive: 5.01 µM [activator, single point] | 
CCn1c(SCC(=O)NCc2ccco2)nnc1-c1ccc(N)cc1 | inconclusive: 2.24 µM [inhibitor, partial curve] | 
Cc1[nH]nc(N2CCCCCC2)c1[N+](=O)[O-] | inconclusive: 3.55 µM [inhibitor, single point] | 
O=C(Nc1ccccc1Cl)ON=C1c2ccccc2-c2ccccc21 | inconclusive: 35.5 µM [inhibitor, single point] | 
COc1ccc(/C=N/NC(=O)CNc2ccc(Br)cc2)c(C(=O)O)c1OC | inactive | 
Cc1c(NC(=O)C(C)OC(=O)/C=C/c2ccccc2)c(=O)n(-c2ccccc2)n1C (stereo not given) | inconclusive: 22.4 µM [activator, single point] | 
O=C(NNC(=O)c1cc(-c2ccccc2)nc2ccccc12)Nc1cccc(Cl)c1 | inconclusive: 35.5 µM [inhibitor, single point] | 

Compound | Potency | activity change, negative = inhibition
CCCn1c(=O)[nH]c(=O)c2c1nc(-c1ccc3c(c1)OCCO3)n2CCN1CCOCC1 | inconclusive: 11.2 µM [activator, partial curve] | 
COc1ccc(NC(=O)c2oc3ccc(S(=O)(=O)N4CCC5(CC4)OCCO5)cc3c2C)cc1 | inconclusive: 11.2 µM [inhibitor, single point] | 
CN(C)/C=N/c1c(C#N)nnn1Cc1ccccc1 | inactive | 
CCCCCCCCC(=O)Nc1cc(C)ccc1OC | inactive | 
N#Cc1c(Cl)nc(SCc2ccccc2)nc1-c1ccccc1 | inconclusive: 31.6 µM [inhibitor, single point] | 
Cc1ccc(S(=O)(=O)Nc2ccc3oc(=O)sc3c2)c(C)c1 | inconclusive: 3.55 µM [activator, single point] | 
CCc1ccc(C2(O)CC(C(F)(F)F)=NN2C(=O)Cc2ccc([N+](=O)[O-])cc2)cc1 (stereo not given) | inconclusive: 35.5 µM [inhibitor, single point] | 
O=C(NC(=S)Nc1cccc(O)c1)c1ccco1 |  | inactive: -10.8% [at 9.22 µM]
Cc1ccc2cc(C)c3nnc(SCC(=O)c4cccs4)n3c2c1C | inconclusive: 35.5 µM [activator, single point] | 
O=C1CN(C(=O)COC(=O)C2=COCCO2)c2ccccc2N1 | inactive | 
COc1ccc(C(=O)/C=C2/c3ccccc3CC(C)(C)N2C)cc1OC | inconclusive: 31.6 µM [inhibitor, single point] | 
O=C(NCc1cc(Br)cc(Br)c1OC(=O)c1ccccc1[N+](=O)[O-])c1ccccc1 | inconclusive: 35.5 µM [inhibitor, single point] | 
Cc1cccc(NC(=O)COn2nnc3ccc(S(C)(=O)=O)cc32)c1 | inconclusive: 0.355 µM [inhibitor, partial curve, poor fit] | 
Cc1ccc(NNC(=O)c2ccno2)cc1C |  | inactive: -0.943% [at 9.22 µM]
CC(=O)N1CCN(c2ncnc3sc(-c4ccccc4)cc23)CC1 | inactive | 
CCc1ccc(OCC(=O)O/N=C(\N)Cc2ccc([N+](=O)[O-])cc2)cc1 | inconclusive: 3.16 µM [activator, single point] | 
Cc1c(C2C(C#N)=C(N)N(c3cccc([N+](=O)[O-])c3)C3=C2C(=O)CCC3)cnn1C (stereo not given) |  | inactive: -10.5% [at 9.22 µM]
Cc1ccc(C(=O)Oc2csc(=S)n2C(=O)c2ccc(C)cc2)cc1 | inactive | 
C=CCn1c(SCC(=O)N2CCOCC2)nc(O)cc1=O | inconclusive: 0.355 µM [activator, partial curve] | 
CC1CC(=O)NN=C1c1ccc(NCCO)c([N+](=O)[O-])c1 (stereo not given) | inactive | 
COc1cc(CC(=O)OCC(=O)Nc2cc([N+](=O)[O-])ccc2F)cc(OC)c1OC | inactive | 
C=CCN1C(=O)/C(=C/c2ccc(O)cc2)S/C1=N/c1nccs1 | inconclusive: 35.5 µM [inhibitor, single point] | 

Looked up above.
Potency, N#Cc1c(Cl)nc(SCc2ccccc2)nc1-c1ccccc1 reads inconclusive: 31.6 µM [inhibitor, single point]
Potency, CC1CC(=O)NN=C1c1ccc(NCCO)c([N+](=O)[O-])c1 (stereo not given) reads inactive
Potency, CCc1ccc(C2(O)CC(C(F)(F)F)=NN2C(=O)Cc2ccc([N+](=O)[O-])cc2)cc1 (stereo not given) reads inconclusive: 35.5 µM [inhibitor, single point]
